Each structure is given as a SMILES string. This is one part of the list.

Among the data in PubChem BioAssay AID601 (SRMLSC, 2007) are viability values, retold here.

A short description of this test: reversal of MRP1-mediated doxorubicin resistance, pilot screen, H69AR cells, doxorubicin co-treatment (AID 601). As to conditions: H69AR cells + 2 uM doxorubicin, CellTiter-Glo, 72 h; measured here: viability with 2 uM doxorubicin; at 10 µM; stronger effect = lower value. On the technique in general: ATP-based viability assays read luminescence as a measure of living cells.
Broadly, the viability is a per cent measure of how many cells are alive, often set against a control. With `Fc1ccccc1NC1CCN(Cc2ccccc2)CC1`, the viability is 78.9%.
